{
  "source": "ChEMBL document CHEMBL4011581",
  "about": "“Interference with bile salt export pump function is a susceptibility factor for human liver injury in drug development” (Toxicol Sci, 2010)",
  "biological_target": "Bile salt export pump (Homo sapiens, UniProt O95342)",
  "experiment": "Inhibition of human BSEP expressed in fall armyworm sf9 cell plasma membrane vesicles assessed as reduction in vesicle-associated [3H]-taurocholate transport preincubated for 10 mins prior to ATP addition measured after 15 mins in presence of [3H]-taurocholate by topcount based membrane vesicle transport assay",
  "format": "ADME",
  "data": [
    {"smiles": "CN(C)CCOC(c1ccccc1)c1ccccc1", "note": "[DIPHENHYDRAMINE]", "values": [
      {"measurement": "IC50", "value": "> 135", "unit": "µM"}
    ]}
  ]
}
